Experimental data reported in paper PMC5686162, “Non-canonical activation of OmpR drives acid and osmotic stress responses in single bacterial cells” (Nature Communications, 2017).
The exact form of at least one protein or probe is not confirmed. A negative result means that nothing was seen under these conditions. Protein sequences can lack the tags named with them.

Target: T1, OmpR (UniProt P0AA19)
T1 sequence (looked up, limits assumed): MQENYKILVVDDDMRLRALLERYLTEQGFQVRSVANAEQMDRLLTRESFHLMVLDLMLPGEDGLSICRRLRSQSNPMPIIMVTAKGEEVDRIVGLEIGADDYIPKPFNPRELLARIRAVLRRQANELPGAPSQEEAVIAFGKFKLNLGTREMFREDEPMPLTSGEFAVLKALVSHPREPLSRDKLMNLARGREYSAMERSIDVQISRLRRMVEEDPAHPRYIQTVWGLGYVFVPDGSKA
Experiment: EMSA
Settings: 1 mM Mg2+, poly(dI-dC), EMSA: 10 mM Tris pH 7.5, 50 mM KCl, 2.5% glycerol, 1 mM MgCl2, 0.05% NP-40, 1 ug poly(dI-dC), 10 fmol DNA in 15 ul, temperature not given, recombinant protein, protein details: His (pET15b), label: biotin 5' end, probe letters rebuilt from the primers and the genome

Sequence: AGACATTGAGCTTCTCCCTTCAGGTTGAACACCCTTTAAGCGTAGACACTTTTACTACCGTAAGAGGGAGAATCAGAACGATCCTTATGCTTCGCCCGTATTCACAACAGAGTTAACTAGCCATGAAGGTTATTTTTCTTGCCGTGCGACGGTGGTGACGTTGCGCGTCCGGTAGTCGCCATCGGAAAGCTTACGCGTCAGACGTAAGGTTGCCGTCTCGCGAGCCAGCAGATGCTGCCAGTCACTTTCAAGACGAGACATAATTTTGTCTCGTAATTCAGGATGCTGCTCGATAATGGCATTGATGGTCGCGCCATAAATCTCCTCTTTGACCTGTAACGCATA (double strand) [yghA (also printed yhgA) upstream region]
- binding result: no binding

Sequence: AAGGTGGCTCCTACCCGTGATCCCTTGACGGAACTAGCAAGTCAAAGCCTGGTTCCGCCGCTTTATCGCTGCGGTAAATAACGCAGCGGGTTTACGGATTTCCCCTTGTAACGAATTTCAAAATGCAAGCGTGTAGAGCTGGTGCCGGTGCTACCCATAGTAGCGATTTTTTGCCCCGCCTTAACTTCCTGTTGTTCCCGGACCAGCATCGTATCATTATGGGCGTAGGCACTCAGGTAATCATCGTTATGTTTGATGATAATAAGATTACCGTAACCACGCAGTGCGTTACCGGCATATACGACGCGCCCATCAGCGGTTGCGACGATAGCCTGTCCCTTACTGCCTGCAATGTCGATCCCTTTATTGCCCCCTTCGGAAGCGCCAAAGTTTTCGATCACTTTGCCATCCGTCGGCCAG (double strand) [rpoS upstream region]
- binding result (100-fold unlabeled DNA as competitor): binds
